Results reported in publication PMC7819943, “Rice protein-binding microarrays: a tool to detect cis-acting elements near promoter regions in rice”.
Some of the results follow.

The chains behind the UniProt entries cited, without tags or fusion partners.
UniProt Q0JBA9, entry or part of it: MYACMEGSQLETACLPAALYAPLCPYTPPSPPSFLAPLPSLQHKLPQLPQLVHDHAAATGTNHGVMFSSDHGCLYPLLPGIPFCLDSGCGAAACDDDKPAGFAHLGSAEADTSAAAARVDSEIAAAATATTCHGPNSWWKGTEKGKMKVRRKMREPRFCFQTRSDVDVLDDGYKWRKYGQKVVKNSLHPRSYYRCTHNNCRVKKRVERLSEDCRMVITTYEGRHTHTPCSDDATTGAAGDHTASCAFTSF

Molecular target: OsWRKY34 (Oryza sativa, UniProt Q0JBA9 1-250)
Assay: protein-binding microarray (RPBM); PBS, 2% BSA, 51.3 ng/ul salmon testes DNA, 50 uM zinc acetate, 200 nM TF, 25 C, 1 h; high values mean tight binding
Conditions: protein: recombinant; tags: N-terminal polyhistidine and DsRed monomer fusion (pET32a); label: CyDye5-dUTP incorporated in the synthesized complementary strand; 3' TTTTT single-stranded linker to array surface; dsDNA, one strand shown
In short: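 Per-feature fluorescence intensity (arbitrary units), read on an Axon 4000B scanner, is the binding signal. Transcription factors carrying an N-terminal polyhistidine tag and DsRed fusion were expressed in E. coli BL21-CodonPlus and purified on Ni–NTA. A custom Agilent array, made double-stranded by primer extension with Cy5-dUTP and blocked with 2% BSA, was incubated with 200 nM protein in PBS, 2% BSA, salmon testes DNA and 50 µM zinc acetate at 25 °C for 1 h and then washed.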

Point of comparison: “TATATGGGCCTAATGCATTGTTACGCTTTCAGCCCATAACCGGAGTCACCTAGTGCAG”, binding signal 9240 fluorescence intensity (a.u.). Against it:
- ATGAATTGATAGTTGCATGTCTTCCTAAAGTCTTGTTTTTCGGAGTCACCTAGTGCAG — lower, 8540 fluorescence intensity (a.u.)
- GGGCGTTTGGGTTGGGCCACAAGAAAATTCCTCGCTCGCCCGGAGTCACCTAGTGCAG — lower, 8070 fluorescence intensity (a.u.)
- TCTCGTTTCGTTCGTGTATCATGTTTTTTTTTGGGTCGCTCGGAGTCACCTAGTGCAG — lower, 8730 fluorescence intensity (a.u.)
- CGCCCAACCCCAACACATGTACATTTCCCTTGGCTTGCTTCGGAGTCACCTAGTGCAG — higher, 10400 fluorescence intensity (a.u.)
- TTCGCCCACTCACACACACTGACACTGCCACCTCACTCTCCGGAGTCACCTAGTGCAG — higher, 9530 fluorescence intensity (a.u.)
- GCTCGCTTTCTCAGGTCTTTCTCTTCCCCGTATCCCCACTCGGAGTCACCTAGTGCAG — higher, 10500 fluorescence intensity (a.u.)
- ATTCTCTCTTCTGTGTTTCCTTTTTGAGATACTTCATTTTCGGAGTCACCTAGTGCAG — higher, 9340 fluorescence intensity (a.u.)
- ATTGCTTATACTTTTTTTAGTACCAACCGTTGGAAACAATCGGAGTCACCTAGTGCAG — higher, 9920 fluorescence intensity (a.u.)
- GGAGAGAGAGGGGTTTGTGTGGCTGCGAGTGGGCCCCATGCGGAGTCACCTAGTGCAG — lower, 9060 fluorescence intensity (a.u.)
- TACTTACTCCCTCCGTATTTTAATGTATGACGCCGTTGACCGGAGTCACCTAGTGCAG — higher, 14200 fluorescence intensity (a.u.)
- CCCACCACCTATTGTAACTGTATCCCACTGTTCACTATTTCGGAGTCACCTAGTGCAG — higher, 11400 fluorescence intensity (a.u.)
- GCTGGGAGGGAGGAGCGGGAGGCGGCGCGGCGCGTGGAGGCGGAGTCACCTAGTGCAG — lower, 8580 fluorescence intensity (a.u.)
- GTGAGCTACGATGGATGGTTTGGTTGATGGTTAAGTTCGACGGAGTCACCTAGTGCAG — higher, 9560 fluorescence intensity (a.u.)
- AGCAACATTATCCCACGCTTCATTTTGCCGCCATTGACCTCGGAGTCACCTAGTGCAG — higher, 12300 fluorescence intensity (a.u.)
- TGAATTGTGATCTCTCCACCACCATCACCACCACCACGACCGGAGTCACCTAGTGCAG — higher, 9630 fluorescence intensity (a.u.)
- GCTCGTCCTCCGCTGCACCACTTGCATCCGCGCGCGCTTCCGGAGTCACCTAGTGCAG — higher, 11000 fluorescence intensity (a.u.)
- TGTGATTGGTTGTTCTTGGTTTACTTCACCCTGTTGCTTCCGGAGTCACCTAGTGCAG — lower, 8260 fluorescence intensity (a.u.)
- CGTCTTACGTCTTTTCCATCGCGTCCTTTGCGTCCTTTTGCGGAGTCACCTAGTGCAG — lower, 8970 fluorescence intensity (a.u.)
- AGATGTCCTAATGGAGCAGGTCATTTGGTTGGTATTCTGCCGGAGTCACCTAGTGCAG — lower, 8300 fluorescence intensity (a.u.)
- CGCCGGCTTCGCGCTCCCAACCTCGCCGTCGTTCGTCATGCGGAGTCACCTAGTGCAG — lower, 8120 fluorescence intensity (a.u.)
- TTCATCAGTAGTCTTCCAATTACTTCCCTTCATCTAGTTACGGAGTCACCTAGTGCAG — lower, 8190 fluorescence intensity (a.u.)
- CTCCTGCGTCGCATGCGCTTATCCCTACCAATGAGTTAACCGGAGTCACCTAGTGCAG — higher, 12100 fluorescence intensity (a.u.)
- GCATGCGGCCGCGACCGACCGACCATCTCCTTGGTCCTTCCGGAGTCACCTAGTGCAG — higher, 9790 fluorescence intensity (a.u.)
- GATCGCCCTGTGCCGTGCAGTGCAGTTCGTCGACCTCTTGCGGAGTCACCTAGTGCAG — lower, 8580 fluorescence intensity (a.u.)
- CTTTTTTTACAAATGGATCCTTGGTGCTAATGTTCATATTCGGAGTCACCTAGTGCAG — lower, 9020 fluorescence intensity (a.u.)
- CGGCGCGTACGCAGTCCACTACCACCACTTCCGCCGGCGCCGGAGTCACCTAGTGCAG — lower, 8450 fluorescence intensity (a.u.)
- TTTGTCGTTGCTTCCCTTCTTGGAGACCTTGCCTTGAAGACGGAGTCACCTAGTGCAG — lower, 8090 fluorescence intensity (a.u.)
- CCTGCTCGATCCGATCCAATCCGCTCCTCTCCAGTCCAGACGGAGTCACCTAGTGCAG — lower, 8820 fluorescence intensity (a.u.)
- TCTCTCTCTCTCTCTCTCTCTTCTCCTCGCGTTATCCTTCCGGAGTCACCTAGTGCAG — lower, 9110 fluorescence intensity (a.u.)
- ACTTCCAACTTTTCTGTCACATCGAATTTTCCTACACACACGGAGTCACCTAGTGCAG — lower, 8450 fluorescence intensity (a.u.)
- TTTCTATTAATATTATTTTGGAGGGCCAGGGGCGGTTCTCCGGAGTCACCTAGTGCAG — higher, 11000 fluorescence intensity (a.u.)
- TACAAGACCATAGTTCGACTCCCCACCACCGCGCCTGAATCGGAGTCACCTAGTGCAG — lower, 8460 fluorescence intensity (a.u.)
- TCGCCGTTCGCTGGTATATGCCGTTGTCTTGGAATCATCTCGGAGTCACCTAGTGCAG — higher, 11100 fluorescence intensity (a.u.)
- ACCTGTTGAGCAACTATTTTTACCGTACTTTGGAGCGTTTCGGAGTCACCTAGTGCAG — lower, 8540 fluorescence intensity (a.u.)
- TTTTTGGATGATTTTCTTAAGTTTGGGGTTAGACTTGTTTCGGAGTCACCTAGTGCAG — lower, 8560 fluorescence intensity (a.u.)
- AAACACCGACCATTTCTTCACTCTCTAAGCTAGCTCGATGCGGAGTCACCTAGTGCAG — lower, 9170 fluorescence intensity (a.u.)
- TTGGGTATCGTATTGGGTGTTCGGGCACTAATAAAAAAACCGGAGTCACCTAGTGCAG — higher, 10600 fluorescence intensity (a.u.)
- CGCATCGCATCCCATCCCATCCCATCGCACCGCGCAAAACCGGAGTCACCTAGTGCAG — lower, 8240 fluorescence intensity (a.u.)
- TTTCTGTTCTGCATTTCTGTCGCTTCCTCTGCATGCAACACGGAGTCACCTAGTGCAG — higher, 11800 fluorescence intensity (a.u.)
- GTTTGCCCGTCTAATTTTTGTTTGTTGCGTCAGACGTCTACGGAGTCACCTAGTGCAG — lower, 8780 fluorescence intensity (a.u.)
- CCGCTCCTCTCCTTTCCGCCGCCGCCACCGCGCGCTCTTCCGGAGTCACCTAGTGCAG — higher, 9940 fluorescence intensity (a.u.)
